PubChem BioAssay AID1159584, Peter MacCallum Cancer Centre, 2016
The deposit covers about 18,000 reagents; shown is a part drawn at random. Not all columns of the deposit are shown. Not given: the amount of reagent, the time to read-out.

- Aim: 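Genes whose loss is lethal only together with E-cadherin loss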 (primary screen)
- Cells: human MCF10A breast epithelial cells, parental and CDH1-null
- Reagents: siRNA against human genes
- Detection: 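ATP luminescence (CellTiter-Glo) viability per line relative to mean mock wells over all plates, and the ratio of CDH1-null to parental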
- Reading the numbers: CDH1-null / parental viability ratio: higher = CDH1-null cells survive relatively better than parental; CDH1-null viability vs mock: higher = more viable CDH1-null cells
- Units: CDH1-null viability vs mock in fraction of mock

With GABPA (GeneID 2551), what does the deposit list?
CDH1-null / parental viability ratio: 1.52; CDH1-null viability vs mock: 1.47

For OR2H1 (GeneID 26716), what does the deposit list?
CDH1-null / parental viability ratio: 1.16; CDH1-null viability vs mock: 0.52

What did the screen give for KALRN (GeneID 8997)?
CDH1-null / parental viability ratio: 0.87; CDH1-null viability vs mock: 0.85

For PRKG2 (GeneID 5593), how do the results read?
CDH1-null / parental viability ratio: 1.22; CDH1-null viability vs mock: 1.33

Which result is listed for OXNAD1 (GeneID 92106)?
CDH1-null / parental viability ratio: 0.7; CDH1-null viability vs mock: 0.62

Which result is listed for FOXRED1 (GeneID 55572)?
CDH1-null / parental viability ratio: 0.96; CDH1-null viability vs mock: 0.73

Which result is listed for CLTCL1 (GeneID 8218)?
CDH1-null / parental viability ratio: 1.07; CDH1-null viability vs mock: 1.03

What did the screen give for CLCNKA (GeneID 1187)?
CDH1-null / parental viability ratio: 1.05; CDH1-null viability vs mock: 1.02

Which result is listed for RALGPS1 (GeneID 9649)?
CDH1-null / parental viability ratio: 1.16; CDH1-null viability vs mock: 1.04

What is on record for URM1 (GeneID 81605)?
CDH1-null / parental viability ratio: 0.61; CDH1-null viability vs mock: 0.62

For NLRP12 (GeneID 91662), how do the results read?
CDH1-null / parental viability ratio: 1.02; CDH1-null viability vs mock: 1.1

What is on record for RPL13A (GeneID 23521)?
CDH1-null / parental viability ratio: 1.21; CDH1-null viability vs mock: 0.34

Which result is listed for HSP90B1 (GeneID 7184)?
CDH1-null / parental viability ratio: 0.98; CDH1-null viability vs mock: 0.95

What is on record for RIMS2 (GeneID 9699)?
CDH1-null / parental viability ratio: 1.1; CDH1-null viability vs mock: 0.99

For ZNF688 (GeneID 146542), what was measured?
CDH1-null / parental viability ratio: 0.69; CDH1-null viability vs mock: 0.55

How did the screen score FBP2 (GeneID 8789)?
CDH1-null / parental viability ratio: 1.53; CDH1-null viability vs mock: 0.9

For BEST2 (GeneID 54831), what does the deposit list?
CDH1-null / parental viability ratio: 0.86; CDH1-null viability vs mock: 0.82

With GULP1 (GeneID 51454), what was measured?
CDH1-null / parental viability ratio: 0.86; CDH1-null viability vs mock: 0.83

For LINC01565 (GeneID 23434), how do the results read?
CDH1-null / parental viability ratio: 1.19; CDH1-null viability vs mock: 0.74

What did the screen give for CCNO (GeneID 10309)?
CDH1-null / parental viability ratio: 1; CDH1-null viability vs mock: 0.98

With SUDS3 (GeneID 64426), how do the results read?
CDH1-null / parental viability ratio: 1.05; CDH1-null viability vs mock: 0.9

With MXD3 (GeneID 83463), what does the deposit list?
CDH1-null / parental viability ratio: 0.77; CDH1-null viability vs mock: 0.66

For NUP62CL (GeneID 54830), how do the results read?
CDH1-null / parental viability ratio: 0.83; CDH1-null viability vs mock: 1.02

For UBIAD1 (GeneID 29914), what was measured?
CDH1-null / parental viability ratio: 0.84; CDH1-null viability vs mock: 0.57

What is on record for RFPL4A (GeneID 342931)?
CDH1-null / parental viability ratio: 1; CDH1-null viability vs mock: 0.98

With SLC16A14 (GeneID 151473), what does the deposit list?
CDH1-null / parental viability ratio: 0.93; CDH1-null viability vs mock: 0.86

With SLN (GeneID 6588), what was measured?
CDH1-null / parental viability ratio: 1.14; CDH1-null viability vs mock: 1.12

What is on record for AGL (GeneID 178)?
CDH1-null / parental viability ratio: 0.73; CDH1-null viability vs mock: 0.54

What is on record for ZC3H8 (GeneID 84524)?
CDH1-null / parental viability ratio: 1.09; CDH1-null viability vs mock: 0.74

What did the screen give for GPC1 (GeneID 2817)?
CDH1-null / parental viability ratio: 0.9; CDH1-null viability vs mock: 0.45

For CLEC7A (GeneID 64581), what does the deposit list?
CDH1-null / parental viability ratio: 0.86; CDH1-null viability vs mock: 0.68

What is on record for PTH2 (GeneID 113091)?
CDH1-null / parental viability ratio: 0.98; CDH1-null viability vs mock: 0.47

For LOC402715 (GeneID 402715), what does the deposit list?
CDH1-null / parental viability ratio: 1.01; CDH1-null viability vs mock: 0.82

What did the screen give for RIPPLY3 (GeneID 53820)?
CDH1-null / parental viability ratio: 1; CDH1-null viability vs mock: 0.97

For KCTD1 (GeneID 284252), how do the results read?
CDH1-null / parental viability ratio: 1.13; CDH1-null viability vs mock: 1.22

Copied from above (3 entries):
RIMS2 (GeneID 9699): CDH1-null / parental viability ratio = 1.1; CDH1-null viability vs mock = 0.99
ZNF688 (GeneID 146542): CDH1-null / parental viability ratio = 0.69; CDH1-null viability vs mock = 0.55
FBP2 (GeneID 8789): CDH1-null / parental viability ratio = 1.53; CDH1-null viability vs mock = 0.9
